# Measured values reported in patent US20230192894A1.
# These are yes or no findings as the source states them, for the method shown. Some entries that bind do so weakly or less than the wild type.
# Columns and labels:
# [1] = biological target: mouse monoclonal antibody specific for canine FcεRIα sequence … (SEQ ID NO:2); assay: peptide competition, flow cytometry on HMRC mast cells
# [2] = biological target: mouse monoclonal antibody specific for canine FcεRIα sequence … (SEQ ID NO:2); assay: peptide competition ELISA against plate-bound canine FcεRIα
binder,measurement,setting,value
CTGNNSLEVDSAVWLHNNT [canine FcεRIα peptide sequence … (SEQ ID NO:2)],binding,[1],binds
same,binding,[2],binds
